Target: Voltage-gated inwardly rectifying potassium channel KCNH2 (Homo sapiens, UniProt Q12809)

By UniProt entry, the sequences of proteins in these tests, tags left out. Where a name states a change or a piece, a line headed by the entry shows the natural chain unless it says otherwise.
UniProt Q12809: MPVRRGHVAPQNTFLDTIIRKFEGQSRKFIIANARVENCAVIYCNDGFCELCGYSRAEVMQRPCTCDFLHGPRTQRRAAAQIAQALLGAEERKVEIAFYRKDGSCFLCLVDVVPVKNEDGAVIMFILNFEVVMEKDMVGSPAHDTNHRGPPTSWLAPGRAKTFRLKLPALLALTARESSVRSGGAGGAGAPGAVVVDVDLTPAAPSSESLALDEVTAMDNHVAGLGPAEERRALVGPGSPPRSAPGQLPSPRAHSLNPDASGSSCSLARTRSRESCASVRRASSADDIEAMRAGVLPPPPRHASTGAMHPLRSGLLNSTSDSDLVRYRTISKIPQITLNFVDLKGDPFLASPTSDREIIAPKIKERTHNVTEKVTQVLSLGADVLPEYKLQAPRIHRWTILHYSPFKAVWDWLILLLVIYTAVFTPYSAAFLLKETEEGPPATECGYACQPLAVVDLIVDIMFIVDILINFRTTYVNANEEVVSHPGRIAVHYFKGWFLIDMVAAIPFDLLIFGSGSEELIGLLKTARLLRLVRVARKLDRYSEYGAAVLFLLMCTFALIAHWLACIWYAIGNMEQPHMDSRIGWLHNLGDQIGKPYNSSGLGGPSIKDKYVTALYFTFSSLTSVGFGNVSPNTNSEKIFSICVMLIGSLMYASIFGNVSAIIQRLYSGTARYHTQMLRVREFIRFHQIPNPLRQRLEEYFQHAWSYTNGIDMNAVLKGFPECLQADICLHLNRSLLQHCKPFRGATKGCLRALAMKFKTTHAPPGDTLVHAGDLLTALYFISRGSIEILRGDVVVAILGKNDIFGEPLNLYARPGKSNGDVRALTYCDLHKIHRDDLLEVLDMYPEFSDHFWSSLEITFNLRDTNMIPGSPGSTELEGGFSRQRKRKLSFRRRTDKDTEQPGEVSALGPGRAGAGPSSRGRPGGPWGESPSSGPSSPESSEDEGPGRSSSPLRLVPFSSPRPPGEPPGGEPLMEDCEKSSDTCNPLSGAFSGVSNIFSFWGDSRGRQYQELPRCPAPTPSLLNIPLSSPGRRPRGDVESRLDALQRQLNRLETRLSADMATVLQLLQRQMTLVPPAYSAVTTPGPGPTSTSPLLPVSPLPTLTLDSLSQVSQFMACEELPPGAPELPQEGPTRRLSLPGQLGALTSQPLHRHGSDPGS

## O=C(NCc1ncccn1)c1csc(-c2ccc(OC(F)F)c(OCC3CC3)c2)n1
  IC50: 11.6 µM
